## Results of single-concentration screens

The values are deposited in ChEMBL (CHEMBL3988442, “University of Dundee, Small-Polar-MMV Screening Library” (2021)).

Mtb cholesterol medium: 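Whole-cell growth test on Mycobacterium tuberculosis, read after 4 days in a medium based on cholesterol and the lipid DPPC; the read-out is not stated. Tested at 50 µM. Higher reads as more growth inhibition (inferred: compounds with an IC50 in retests scored well above the rest). About 69,000 compounds were tested under these conditions; 0.54% (about 370) showed 50% or more at least once.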
Mtb glucose medium: 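Whole-cell growth test on Mycobacterium tuberculosis, read after 3 days in glucose-containing 7H9 medium; the read-out is not stated. Compounds at 50 µM. Direction is inferred from retests: higher values go with more growth inhibition. Size under these conditions: about 69,000 compounds, about 760 of them at 50% or above in at least one test.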

Results are given as percent effect.
How 0% and 100% were set is not recorded. Most values in the screen are low, and negative values occur.
Compounds were drawn at random from those tested, without regard to their results.
Two or more numbers in one place are separate tests of the same structure; such repeats can differ widely.

compound,Mtb cholesterol medium,Mtb glucose medium
COc1ccccc1C(=O)N1CCCC1Cn1cc(C)cn1 (centres unmarked),-18.38,-12.41
COCCN(CCOC)C(=O)c1ccn(-c2ccc3ccccn23)n1,4.549,-18.74 and -7.459
CC(C)n1cc(CN2CCCN(C(=O)c3ccnn3C)CC2)cn1,3.437 and -15.61,14.85
COc1cc(C)ccc1OCCC(=O)N1CCC(N2CC=CC2)C1 (centres unmarked),8.386,17.97
CC1(C(=O)NCc2cccc(C(F)(F)F)c2)CCOCC1,-7.336,-6.178
c1ccc(-c2noc(CCNC3CCOC4(CCOCC4)C3)n2)nc1 (centres unmarked),-10.56,-1.248
CCOc1ccc(C(=O)N2CCCC2c2c(C)nn(C)c2OC)cn1 (centres unmarked),-4.211,0.8972
O=C1CCc2cc(S(=O)(=O)NC(=O)c3ccc4c(c3)CCO4)ccc2N1,12.34,3.938
O=C(O)C(F)(F)F.[H][C@]12CN(Cc3ccncc3)C(=O)[C@@]1([H])CN(c1ncccn1)C2,-3.772 and -4.601,9.51
Cn1cc(C[C@H]2[C@H](O)CCN2CC2CC2)cn1.O=C(O)C(F)(F)F,2.168,-30.34
Cc1c(Cc2ccccc2)c(O)nc2nc(N3CCOCC3)nn12,-2.536,12.01
CC(=O)c1cc(CN2C[C@@H](CN3CCCC3)[C@@H](CO)C2)n(C)c1,-10.93,18.3
CC(CCc1ccccc1F)C(=O)NS(=O)(=O)N(C)C(C)C (centres unmarked),-14.56,0.6135 and 6.454
CCn1ncnc1CN1CCC(CNC(=O)c2cccc(C)c2)C1 (centres unmarked),0.08772,18.7
O=C(O)C(F)(F)F.O=C(O)C(F)(F)F.O=c1ccc2c(n1Cc1cccnc1)CCN(Cc1ccoc1)CC2,1.355,-10.42
Cc1nnc(CN(Cc2ccccc2Br)C2CC2)o1,29.96,33.74 and 60.33
O=C(O)C(F)(F)F.O=C(O)C(F)(F)F.[H][C@@]12COC[C@]1(COc1cccnc1)CN(Cc1ccccc1OC)C2,-19.68,-19.83
Cc1nn(C)c(N2CCOCC2)c1CNCc1ccc(N(C)C)nc1,0.1294,-5.128
CCN(CC)C(=O)Nc1ccc(C(=O)N(C)C)c(C)c1,7.519,15.56
Cc1cccc(CN2CCc3c(CNC(=O)CC#N)nn(C)c3C2)n1.O=C(O)C(F)(F)F,11.03,-7.933 and -3.987
CSCCC(=O)N1CCCN(Cc2cnn(C(C)C)c2)CC1,-1.829,-14.07 and -9.249
CCC(=O)NC(Cc1cc(N(C)C)nc(C2CC2)n1)c1ccccc1 (centres unmarked),3.024 and 12.95,-7.255
CC(CNC(=O)c1cc(C2CC2)nc2c1cnn2C)Cn1cccn1 (centres unmarked),10.29,-3.28 and 18.91
CCC1COCCN1C(=O)CNC(=O)c1ccc2c(c1)CCC2 (centres unmarked),-22.69,6.894 and -34.89
Cc1ccc(CC(=O)NC2CCN(c3cccc(Cl)c3)C2)cn1 (centres unmarked),10.16,-14.95
Cc1cccc(CNc2cncc(-n3cccn3)n2)c1,23.36,31.24
Cc1ncc(CN2CCOCC2)c2cc(C(=O)c3ccc(Br)cc3)oc12.Cl,17.68,39.35
CC(C)c1nc(CN(C)C(=O)[C@H](N)Cc2ccc(Cl)cc2)cs1,14.12,44.19
CCNc1cc2c(nn1)CCN(C(=O)c1cc3cccc(C)c3o1)C2,9.979,-10.17
O=C(O)C(F)(F)F.[H][C@@]12CCN(Cc3ccc(C)s3)C[C@]1([H])[C@H](c1nc(C)no1)CCO2,-18.62,-1.37
CCn1nc(C)c(CNC(=O)NCC(C)(O)c2ccsc2)c1C (centres unmarked),-8.327,20.53 and 0.8294
Cc1noc(CNc2ccccc2C(=O)N2CCCC(O)C2)n1 (centres unmarked),4.154,-30.1
CCOc1cccc(C2CC(=O)NCc3nc(N)sc32)c1 (centres unmarked),4.046,7.739
CCOCc1ncn2c1CN(C(=O)c1ccoc1)CC2,-16.82 and -11.04,-43.33
O=C(O)c1ccc(=O)n(CC(c2ccc(Cl)cc2)N2CCOCC2)c1 (centres unmarked),-12.88 and -4.771,-8.193
OC1(CNCCSc2ccccn2)CNCCOC1 (centres unmarked),23.89,15.94
CC(C)NC(=O)CC(C)NC(=O)N(C)Cc1cc(Cl)cn1C (centres unmarked),7.996,14.42
O=C(NCC1CC1)c1cc(Cl)c2c(c1)OCCCO2,21.2,15.44 and 18.6
Cc1ccc(Cc2cnc(NC(=O)C3CNC(=O)N3)s2)cc1F (centres unmarked),-1.518,-11.29
CCn1cc(CN2CC3CCCN3C[C@H]2C)c(C)n1 (some centres unmarked),-24.28,-37.66
COc1ccc(-n2nnc(C(=O)NC(C)C)c2C2CC2)cc1,8.506,22.98 and 15.96
COc1cc(CN(C)C(=O)NCCC(=O)NC2CCCC2)ccc1SC,-14.27,-17.53
COc1ncccc1CNC(=O)NCc1ccco1,18.44,0.2343
CCn1cc(NC(=O)NC2CCCc3c2cnn3CCO)cn1 (centres unmarked),-23.28,-16.09
Cc1ncccc1C(=O)Nc1cccc2c1C(=O)NC2,-13.81,1.538
CCN1C(=O)C2(CCOCC2)c2cc(NC(=O)c3csnn3)ccc21,-19.82,2.329 and -0.1954
CC(C(=O)N1CCCCC1)n1nc(-c2cccs2)cc(N)c1=O (centres unmarked),-14.96,-8.272
O=C(O)C(F)(F)F.c1cnc(NCc2nnn3c2CN(Cc2ccsc2)CCC3)nc1,9.056,5.43
Cc1cncc(C2CCCN(C(=O)c3cccn3C)C2)n1 (centres unmarked),-22.56,2.199
CC(NCc1ccc(OCC(N)=O)cc1)c1ccc(Cl)cc1Cl.Cl (centres unmarked),71.18,61.98
CS(=O)(=O)c1ccc(Cl)c(NC(=O)NCCC2=CCCCC2)c1,-0.8642,-14.5
CN1N=C(C(=O)N(Cc2ccco2)C2CCCC2)CCC1=O,18.8,25.79
CCCC(NC(=O)c1cnccn1)c1nnc2ccccn12 (centres unmarked),9.276,6.307
CCOCC1CN(Cc2cnn(C)c2)Cc2ncn(C)c21 (centres unmarked),-22.6,6.593
CC(C)c1cc(NC(=O)CN2CCC(C(N)=O)CC2)on1,3.567,-9.419
COc1ccc([C@@H]2CN(C(=O)CCn3cccn3)C[C@H]2NC(C)=O)cc1,-19.78,-5.367 and -30.22
[H][C@]12CN(c3ccccn3)CCN1C[C@@H](CO)[C@@H]2c1ccccc1,-1.93,20.63
CC(C)n1nnnc1-c1ccc(NC(=O)CC(F)(F)F)cc1F,-10.29,-3.326 and -4.079
Cc1ncsc1CN(Cc1ccccc1)Cc1ccncc1,-15.95,-6.863
COCc1cc(N(Cc2ccsc2)C2CC2)n2ncnc2n1,-7.326,17.39
CC(C)Cc1noc(CN2CCCC(CNS(N)(=O)=O)C2)n1 (centres unmarked),5.871,-19.32 and -0.78
COc1ccccc1[C@@H]1CN(C(=O)Cc2csc(C)n2)C[C@H]1C(=O)O,-26.28,-16.59
CCOC(=O)c1sc(NC(=O)CN(C)S(C)(=O)=O)c(C#N)c1C,-6.565,3.191
CC(=O)N[C@@H]1CN(Cc2ccccc2-n2nc(C)cc2C)C[C@H]1C(C)C,-13.18,36.34
CN(Cc1cccnc1)C1COC2(CCN(Cc3nccs3)CC2)C1.O=C(O)C(F)(F)F.O=C(O)C(F)(F)F.O=C(O)C(F)(F)F (centres unmarked),1.138,12.87
COc1c(F)cc(NCC(=O)NC(C)(C#N)C2CC2)cc1F (centres unmarked),16.31,18.62
O=C(CCc1nc(-c2cccnc2)no1)NCC1CCN(C2CC2)C1 (centres unmarked),-20.1,-12.65
Cc1cc(NC(=O)NCC(C(C)C)N2CCOCC2)n(C)n1 (centres unmarked),-7.157,7.471 and 0.5285
CN1CCCC1c1ccc(C(=O)N2CCc3ccccc3C2)s1 (centres unmarked),-10.75,-7.542
Cc1cnn(CC2CCN(CC(O)c3ccc(F)cc3)CC2)c1 (centres unmarked),8.77,28.09 and -21.4
CCc1oc(C(=O)NCCc2cc(O)nc(C)n2)cc1CN1CCCC1,7.827,30.55

The last 9 entries again:

| compound | Mtb cholesterol medium | Mtb glucose medium |
|---|---|---|
| `CCOC(=O)c1sc(NC(=O)CN(C)S(C)(=O)=O)c(C#N)c1C` | -6.565 | 3.191 |
| `CC(=O)N[C@@H]1CN(Cc2ccccc2-n2nc(C)cc2C)C[C@H]1C(C)C` | -13.18 | 36.34 |
| `CN(Cc1cccnc1)C1COC2(CCN(Cc3nccs3)CC2)C1.O=C(O)C(F)(F)F.O=C(O)C(F)(F)F.O=C(O)C(F)(F)F` (centres unmarked) | 1.138 | 12.87 |
| `COc1c(F)cc(NCC(=O)NC(C)(C#N)C2CC2)cc1F` (centres unmarked) | 16.31 | 18.62 |
| `O=C(CCc1nc(-c2cccnc2)no1)NCC1CCN(C2CC2)C1` (centres unmarked) | -20.1 | -12.65 |
| `Cc1cc(NC(=O)NCC(C(C)C)N2CCOCC2)n(C)n1` (centres unmarked) | -7.157 | 7.471 and 0.5285 |
| `CN1CCCC1c1ccc(C(=O)N2CCc3ccccc3C2)s1` (centres unmarked) | -10.75 | -7.542 |
| `Cc1cnn(CC2CCN(CC(O)c3ccc(F)cc3)CC2)c1` (centres unmarked) | 8.77 | 28.09 and -21.4 |
| `CCc1oc(C(=O)NCCc2cc(O)nc(C)n2)cc1CN1CCCC1` | 7.827 | 30.55 |